Test results from paper PMC7385149.
No constants are given. Whether binding was seen depends on the method and setting. In cells and extracts the contact can be indirect. Some results given as binding are weak or reduced against the parent protein; the word gives no strength. For some assays here: Sequences can lack the tags named with a protein.

The chains behind the UniProt entries cited, without tags or fusion partners. Residues count along the entry.
UniProt Q13443, residues 29-819: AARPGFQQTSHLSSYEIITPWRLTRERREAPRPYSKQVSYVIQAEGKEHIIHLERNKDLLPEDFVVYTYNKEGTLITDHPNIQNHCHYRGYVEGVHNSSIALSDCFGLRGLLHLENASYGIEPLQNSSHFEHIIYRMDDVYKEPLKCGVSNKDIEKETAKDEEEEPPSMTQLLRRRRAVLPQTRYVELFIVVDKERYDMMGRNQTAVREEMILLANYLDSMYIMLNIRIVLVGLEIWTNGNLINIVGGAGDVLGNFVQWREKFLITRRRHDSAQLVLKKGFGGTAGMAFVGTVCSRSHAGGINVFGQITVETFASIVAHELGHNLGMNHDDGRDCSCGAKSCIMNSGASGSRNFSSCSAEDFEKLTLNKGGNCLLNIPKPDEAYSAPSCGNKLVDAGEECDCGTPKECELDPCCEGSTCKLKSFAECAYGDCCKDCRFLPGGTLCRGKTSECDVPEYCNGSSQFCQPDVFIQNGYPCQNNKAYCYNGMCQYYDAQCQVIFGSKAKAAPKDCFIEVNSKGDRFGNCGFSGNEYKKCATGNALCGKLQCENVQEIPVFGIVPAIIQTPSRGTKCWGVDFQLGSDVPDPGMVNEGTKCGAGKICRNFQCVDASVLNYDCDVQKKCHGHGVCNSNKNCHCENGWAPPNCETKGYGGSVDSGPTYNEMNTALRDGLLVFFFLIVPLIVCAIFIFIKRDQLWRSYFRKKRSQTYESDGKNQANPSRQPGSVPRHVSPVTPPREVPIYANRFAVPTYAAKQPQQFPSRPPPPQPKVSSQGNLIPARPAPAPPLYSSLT

Columns and labels:
[1] = target: T1, N-α-Acetyltransferase 10 protein (Naa10p), endogenous (human (endogenous in DU145)) (UniProt P41227); test: co-IP; endogenous proteins; DU145 cells lysed in NETN buffer; 2 mg lysate with anti-Naa10p antibody overnight at 4 °C, then protein A Sepharose beads 1 h, five washes; normal IgG as IP control; Western blot
T1 sequence: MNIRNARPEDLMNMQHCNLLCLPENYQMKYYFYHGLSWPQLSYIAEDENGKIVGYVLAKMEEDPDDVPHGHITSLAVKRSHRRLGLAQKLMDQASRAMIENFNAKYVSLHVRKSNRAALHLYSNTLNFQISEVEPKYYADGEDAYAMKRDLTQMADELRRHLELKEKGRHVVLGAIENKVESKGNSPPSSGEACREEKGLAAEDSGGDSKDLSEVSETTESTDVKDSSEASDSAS

[2] = target: a disintegrin and metalloprotease 9, flag-tagged (ADAM9-flag) (UniProt Q13443); test: co-IP; 293T cells co-transfected with ADAM9-flag and Naa10p-V5 for 48 h; NETN lysis buffer (150 mM NaCl, 20 mM Tris-base, 0.5% NP-40, 1 mM EDTA); 2 mg lysate with Anti-Flag M2 affinity gel at 4 °C overnight, five washes; Western blot

With “a disintegrin and metalloprotease 9 (ADAM9), endogenous (from UniProt Q13443 29-819)” the binding [1] was “binds”.

B1: N-α-Acetyltransferase 10 protein, V5-tagged (Naa10p-V5) (protein, UniProt P41227 1-235)
chain: T1 sequence
For B1, the binding [2] was “binds”.
